In all, about 400,000 compounds went through this assay and about 5,500 (1.4%) were called active. This list was built around the results that the source calls inconclusive (neither active nor inactive); the mix of calls is not that of the screen. Calls come from the whole dose curve; as a rule, active = well fitted cell-killing curve with a large enough effect; inconclusive = small, poorly fitted or top-dose-only effect, or effect the other way; inactive = flat fitted curve, though single readings scatter. Where the call is inconclusive, the potency comes from a doubtful curve fit.
Assay: qHTS assay for MDR1-selective chemotherapeutics: Primary screen using the parental adenocarcinoma cell KB-3-1; note: nearly all actives have a fitted effect of over 60% in size
Details: KB-3-1 viability, CellTiter-Glo ATP luminescence, 72 h; activity change, negative = cytotoxic: at 46.1 µM (top of the series)
Procedure, shortened: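 KB-3-1 cells, DMEM (no phenol red) + 10% FBS; compound by pin transfer, 72 h, 37 °C. Readout: CellTiter-Glo luminescence after 10 min. Data normalized, curve-fitted.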
% is set by controls: 0 for no effect and ±100 for the full control effect; potency is the fitted concentration of half-maximal effect.

Compound | Potency | activity change, negative = cytotoxic
O=C(NCc1ccccc1)C1=C[C@@H](c2coc3ccccc3c2=O)C[C@@H](OCc2ccc(CO)cc2)O1 | inconclusive: 29.1 µM [cytotoxic, single point] | –
CCSc1nc2c(sc3ccccc32)c(=O)n1C(C)C | – | inactive: 3.97%
COc1ccc(OC)c(NC(=O)CN(c2ccccc2OC)S(=O)(=O)c2ccc(C)cc2)c1 | inconclusive: 20.6 µM [cytotoxic, single point] | –
Cc1ccc(NC(=O)CSc2ccccn2)cc1S(=O)(=O)N1CCOCC1 | inconclusive: 0.82 µM [rising, full curve] | –
CCOC(=O)/C(C#N)=C/N=c1ccc(C)cn1C | – | inactive: -3.73%
CC(=O)Nc1ccc(NC(=O)CSc2nc3ccccc3c(=O)n2CCCN2CCOCC2)cc1 | – | inactive: -18.7%
COc1ccc(C(=O)c2c[nH]c(C(=O)NCCCN3CCOCC3)c2)cc1 | inconclusive: 29.1 µM [rising, partial curve, poor fit] | –
CCC(=O)n1nc(-c2cccnc2)nc1NCc1ccccc1 | – | inconclusive: -2.95%
COc1ccc(CN2CCN(C(=O)CC(C)C)CC2)cc1Br | inconclusive: 0.366 µM [rising, full curve] | –
CCOC(=O)c1c[nH]c2c(C(F)(F)F)cccc2c1=O | inconclusive: 0.517 µM [cytotoxic, full curve] | –
COc1ccc(-c2ccc(CO)o2)cc1N | – | inactive: 13.9%
COc1ccc(N2CCN(C(=O)c3ccc(CS(=O)c4cccc(C)c4)o3)CC2)cc1 (stereo not drawn) | inconclusive: 29.1 µM [cytotoxic, partial curve, poor fit] | –
COc1ccc(C(=O)NCC(=O)OCC(=O)c2cccc3ccccc23)cc1 | inconclusive: 16.4 µM [rising, single point] | –
COc1cc(NC(=O)CSc2ccc(-c3sc(C)nc3C)nn2)cc(OC)c1 | inconclusive: 18.4 µM [cytotoxic, partial curve, poor fit] | –
N#Cc1nc(-c2ccccc2Cl)oc1N1CCN(C(=O)c2ccco2)CC1 | inconclusive: 16.4 µM [rising, partial curve] | –
COC(=O)c1c(Oc2ccc(C(C)=O)cc2)nnc(-c2ccccc2)c1-c1ccccc1 | inconclusive: 20.6 µM [cytotoxic, single point] | –
CCc1ccccc1Oc1nc(NCc2ccccc2)nc2ccsc12 | inconclusive: 29.1 µM [cytotoxic, single point] | –
Cc1ccc(CSc2nnc(-c3cccnc3)o2)cc1 | inconclusive: 8.2 µM [rising, partial curve, poor fit] | –
CCOC(=O)C1=C(O)c2ccccc2C(=O)/C1=C\c1ccc(CC)cc1 | active: 11.6 µM | –
CCOC(=O)c1ccc(NC(=S)NNC(C)(C)C)cc1 | – | inactive: 0%
COC(=O)CS(=O)(=O)c1nnc([C@H](Cc2ccccc2)NC(=O)OC(C)(C)C)o1 | inconclusive: 29.1 µM [cytotoxic, single point] | –
O=C1/C(=C/c2ccc3c(c2)OCO3)SC(=S)N1CCC(=O)N(CCO)c1ccccc1 | – | inconclusive: 0.894%
O=C1C=C(NCC2CCCO2)C2(CCCCC2)O1 (stereo not drawn) | – | inactive: 1.23%
C/C(=N\NC(=O)c1ccn(C)n1)c1ccc(NC(=O)C2CCC2)cc1 | inconclusive: 13 µM [cytotoxic, partial curve, poor fit] | –
C=C[C@@H]1c2c(F)cccc2N(S(=O)(=O)c2ccc(C)cc2)[C@H](c2ccc(OC(C)=O)cc2)C1(C#N)C#N | inconclusive: 29.1 µM [cytotoxic, single point] | –

Compound | Potency | activity change, negative = cytotoxic
Cc1ccc(S(=O)(=O)Nc2cccc(-c3cn4cccc(C)c4n3)c2)cc1 | – | inactive: -2.04%
COc1ccc(-n2ncc3c(=O)n(CC(=O)Nc4ccc5c(c4)OCCO5)cnc32)cc1 | – | inactive: 0.112%
CC(=O)Nc1ccc(Nc2cc(C)nc3c(-c4ccc(Cl)cc4)cnn23)cc1 | inconclusive: 29.1 µM [cytotoxic, single point] | –
Cc1c(C(N)=O)c(N)c(C(=O)c2ccccc2)n1-c1ccccc1 | – | inactive: 10.9%
CCCCCCCCN1C(=O)[C@H](CC(=O)N2CCCC2)C[C@@]2(C(=O)OC)CC(C)(C)CC=C12 | inconclusive: 20.6 µM [cytotoxic, single point] | –
Cc1cccc(N2CCN(C(=O)c3c(C)oc4ncnc(N5CCCCC5)c34)CC2)c1C | – | inactive: -1.68%
Cc1ccc(C)c(Nc2nc3c(S(=O)(=O)c4ccc(C(C)C)cc4)nnn3c3ccsc23)c1 | inconclusive: 23.1 µM [cytotoxic, single point] | –
Cc1ccc(C(=O)COc2nc(C)nc3ccccc23)cc1 | – | inactive: 6.83%
CCc1ccccc1N1C(=O)N(Cc2ccccc2C)c2ccccc2S1(=O)=O | inconclusive: 6.51 µM [cytotoxic, partial curve, poor fit] | –
CCOC(=O)CNC(=S)N1CCn2c(nc3ccccc32)C1 | – | inactive: -0.151%
CN(C)c1ccc(/C=C2\SC(=O)N(CC(O)Cn3c4ccccc4c4ccccc43)C2=O)cc1 (stereo not drawn) | inconclusive: 25.9 µM [cytotoxic, single point] | –
COc1ccc(NC(=O)Cn2nnc(-c3ccccc3NS(=O)(=O)c3ccccc3)n2)cc1 | active: 23.1 µM | –
CCOC(=O)Nc1ccc2c(c1)N(C(=O)CCN(C)C)c1ccccc1CC2 | inconclusive: 20.6 µM [cytotoxic, partial curve, poor fit] | –
COC1=CC(=O)C(OC)=C(OC)C1=O | inconclusive: 29.1 µM [cytotoxic, single point] | –
COc1ccc(OC)c2sc(N3CCN(C(=O)C4CC4)CC3)nc12 | – | inconclusive: -15%
COCCCn1c(=O)/c(=C\c2ccc(OC(F)F)c(OC)c2)s/c1=C(/C#N)C(N)=O | – | inactive: 5.6%
CCOc1cccc(CNc2ccc(O)cc2)c1OCc1ccc(Cl)cc1Cl | – | inactive: -13.9%
Cc1nc2sc3c(NCc4ccco4)ncnc3c2c2c1COC(C)(C)C2 | inconclusive: 29.1 µM [cytotoxic, single point] | –
O=C1Nc2ccccc2NC(c2ccc3c(c2)OCO3)=C1N(Cc1ccc(F)cc1)C(=O)c1ccco1 | inconclusive: 29.1 µM [cytotoxic, single point] | –
COC(=O)Cc1[nH]n(-c2nc3ccccc3s2)c(=O)c1C(C)=Nc1ccc(OC)cc1 | active: 9.2 µM | –
CCn1c(SCC(=O)NCC2CCCO2)nc2c(c1=O)SCC2 (stereo not drawn) | inconclusive: 0.326 µM [cytotoxic, full curve, poor fit] | –
Cc1nn(-c2ccc(Cl)cn2)c2c1C(=O)CC(C)(C)C2Br (stereo not drawn) | – | inactive: 6.02%
COc1cc(SC)ccc1C(=O)Nc1ccc(S(=O)(=O)N2CCCC2)cc1 | – | inactive: 0%
Cc1ccc(Cn2c(C(=O)O)c(CNC3CCCCCC3)c3ccc(C)cc32)cc1 | – | inactive: 14.8%
COc1ccc(Cn2c(C(=O)O)c(CNCCc3cccs3)c3ccc(C)cc32)cc1 | – | inactive: -28.9%

Quoted at random: 3 compounds from above, in no set order.
Compound | Potency | activity change, negative = cytotoxic
Cc1ccc(CSc2nnc(-c3cccnc3)o2)cc1 | inconclusive: 8.2 µM [rising, partial curve, poor fit] | –
O=C(NCc1ccccc1)C1=C[C@@H](c2coc3ccccc3c2=O)C[C@@H](OCc2ccc(CO)cc2)O1 | inconclusive: 29.1 µM [cytotoxic, single point] | –
C/C(=N\NC(=O)c1ccn(C)n1)c1ccc(NC(=O)C2CCC2)cc1 | inconclusive: 13 µM [cytotoxic, partial curve, poor fit] | –

Following part.

Compound | Potency | activity change, negative = cytotoxic
COc1ccc(-c2nc(-c3ccccc3)c(-c3cc([N+](=O)[O-])ccc3C)[nH]2)cc1O | inconclusive: 29.1 µM [cytotoxic, single point] | –
NC(CCc1ccccc1)c1csc(NC(=O)NCCc2ccccc2)n1 (stereo not drawn) | inconclusive: 29.1 µM [cytotoxic, single point] | –
CC(C)(C)c1ccc(C(=O)Nn2c(CCC(=O)O)ccc2-c2cccs2)cc1 | inconclusive: 23.1 µM [cytotoxic, partial curve] | –
O=C1C(NS(=O)(=O)c2ccccc2)=C(N2CCN(c3ccc(F)cc3)CC2)C(=O)c2ccccc21 | inconclusive: 25.9 µM [cytotoxic, single point] | –
Cc1cnc(NC(=O)Cc2ccc(S(=O)(=O)N3CCOCC3)s2)s1 | – | inactive: 2.52%
CC1CC(C)CN(c2oc(-c3ccc(OCc4ccccc4Cl)cc3)nc2C#N)C1 (stereo not drawn) | inconclusive: 29.1 µM [rising, single point] | –
CCN1CCN(c2ccc(NC(=O)c3ccc([N+](=O)[O-])o3)cc2Cl)CC1 | – | inactive: 0%
NNc1nc(-c2ccccc2)cc(-c2ccc(Br)cc2)n1 | inconclusive: 29.1 µM [cytotoxic, single point] | –
CCOC(=O)[C@]12CCCC=C1N(Cc1ccccc1)C(=O)[C@H](CC(=O)NCC1CCCCC1)C2 | – | inactive: -31.3%
Cc1ccoc1C(=O)N1CCCC(CO)(Cc2ccc(F)cc2)C1 (stereo not drawn) | – | inactive: -5.65%
CC(C)CNC(=O)c1cccc(NC(=O)c2ccco2)c1 | – | inactive: -5.7%
OCCOCCNc1ncnc2c1cnn2-c1ccccc1 | inconclusive: 18.4 µM [rising, partial curve] | –
Cc1oc(-c2cc(Cl)cc(Cl)c2)cc1C(=O)NCCc1ccccc1 | – | inactive: 13.5%
COc1ccc(Cc2c(-c3ccco3)nc3c(C)cc(Br)cn23)c(C)c1 | inconclusive: 18.4 µM [cytotoxic, single point] | –
CCN(CC)CCCNC(=O)C1CCN(c2ncnc3c2sc2cccc(F)c23)CC1 | inconclusive: 18.4 µM [cytotoxic, single point] | –
COc1cc2ncc(C(=O)c3ccccc3)c(N3CCN(Cc4ccccc4)CC3)c2cc1OC | – | inactive: -7.51%
COc1ccc(-n2nc3c(N4CCCC(C(=O)NCc5cccc(F)c5)C4)nnc(C)c3c2C)cc1 (stereo not drawn) | – | inactive: 0.0107%
c1ccc(-c2csc3ncnc(NCC4COc5ccccc5O4)c23)cc1 (stereo not drawn) | active: 1.64 µM | –
C(=C\c1c[nH]c2ccccc12)/c1nccc2ccccc12 | – | inactive: 0%
Cc1c(C#N)c(NC(=O)CCl)n(Cc2ccccc2)c1C | active: 10.3 µM | –
CCCn1c(CCNc2nc(-c3ccc(Cl)c([N+](=O)[O-])c3)cs2)nc2cc(Cl)c(Cl)cc21 | – | inactive: 0%
Cc1ccc(Sc2ccc(NC(=O)CCl)cc2)cc1C | inconclusive: 23.1 µM [cytotoxic, single point] | –
COc1ccc(C(=O)NCC(=O)N/N=C/c2ccc([N+](=O)[O-])o2)cc1OC | inconclusive: 32.6 µM [cytotoxic, partial curve, poor fit] | –
